Experimental data published in PMC12157921.
Results are given in words; binding and its absence hold for the method and conditions named. In cells and extracts the contact can be indirect. For some of these results: Binding can be weak; no strength is given. Sequences can lack the tags named with a protein.

B1: GFP-nsp4 (nonstructural protein 4 of TGEV) (protein, UniProt P0C6Y5 2389-2878)
chain: SGFFDVITQLKQIVILVFVFIFICGLCSVYSVATQSYIESAEGYDYMVIKNGIVQPFDDTISCVHNTYKGFGDWFKAKYGFIPTFGKSCPIVVGTVFDLENMRPIPDVPAYVSIVGRSLVFAINAAFGVTNMCYDHTGNAVSKDSYFDTCVFNTACTTLTGLGGTIVYCAKQGLVEGAKLYSDLMPDYYYEHASGNMVKLPAIIRGLGLRFVKTQATTYCRVGECIDSKAGFCFGGDNWFVYDNEFGNGYICGNSVLGFFKNVFKLFNSNMSVVATSGAMLVNIIIACLAIAMCYGVLKFKKIFGDCTFLIVMIIVTLVVNNVSYFVTQNTFFMIIYAIVYYFITRKLAYPGILDAGFIIAYINMAPWYVITAYILVFLYDSLPSLFKLKVSTNLFEGDKFVGNFESAAMGTFVIDMRSYETIVNSTSIARIKSYANSFNKYKYYTGSMGEADYRMACYAHLGKALMDYSVNRTDMLYTPPTVSVNSTLQ
B2: Flag-nsp4 (nonstructural protein 4 of TGEV) (protein, UniProt P0C6Y5 2389-2878)
chain: SGFFDVITQLKQIVILVFVFIFICGLCSVYSVATQSYIESAEGYDYMVIKNGIVQPFDDTISCVHNTYKGFGDWFKAKYGFIPTFGKSCPIVVGTVFDLENMRPIPDVPAYVSIVGRSLVFAINAAFGVTNMCYDHTGNAVSKDSYFDTCVFNTACTTLTGLGGTIVYCAKQGLVEGAKLYSDLMPDYYYEHASGNMVKLPAIIRGLGLRFVKTQATTYCRVGECIDSKAGFCFGGDNWFVYDNEFGNGYICGNSVLGFFKNVFKLFNSNMSVVATSGAMLVNIIIACLAIAMCYGVLKFKKIFGDCTFLIVMIIVTLVVNNVSYFVTQNTFFMIIYAIVYYFITRKLAYPGILDAGFIIAYINMAPWYVITAYILVFLYDSLPSLFKLKVSTNLFEGDKFVGNFESAAMGTFVIDMRSYETIVNSTSIARIKSYANSFNKYKYYTGSMGEADYRMACYAHLGKALMDYSVNRTDMLYTPPTVSVNSTLQ

Experiments:
HA-TMEM198△OR1 = assay: co-IP; HEK-293T cells transfected with GFP- or HA-tagged TMEM198 truncations and Flag-nsp4 or GFP-nsp4; cell extracts 24h after transfection; IP-western with indicated antibodies (the precipitating antibody is not named)
[1] = biological target: Flag-TMEM198 (transmembrane protein 198); assay: co-IP; 293T cells doubly transfected with Flag-TMEM198 and the tagged viral protein; NP-40 lysis buffer; co-IP with antibody to the Flag tag (anti-tag magnetic beads, overnight at 4°C, five washes with lysis buffer); Western blot
GFP-TMEM198-1 = assay: co-IP; HEK-293T cells transfected with GFP- or HA-tagged TMEM198 truncations and Flag-nsp4 or GFP-nsp4; cell extracts 24h after transfection; IP-western with indicated antibodies (the precipitating antibody is not named)

Binder | binding (HA-TMEM198△OR1) | binding [1] | binding (GFP-TMEM198-1)
B1 | no binding | binds | 
B2 | no binding |  | binds
